Compound in the assay: Nc1ncnc2c1ncn2[C@@H]1O[C@H](COP(=O)(O)OP(=O)(O)NP(=O)(O)O)[C@@H](O)[C@H]1O [adenylyl imidodiphosphate]
The assay can be described thus: NP40-soluble protein abundance relative to vehicle (solubility fold change) (ratio); higher = more soluble protein in presence of AMP-PNP. Summed up:
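Each value is a fold change relative to the detergent-processed vehicle, calculated per replicate from vsn-normalised intensities. Jurkat crude lysate received eight concentrations (0.1 to 10 mM) for 10 min at room temperature and 3 min at 37 °C, then was solubilised in 0.8% NP40 with benzonase (60 min, 4 °C). The ultracentrifuged supernatant was TMT-labelled and run by LC-MS/MS in three independent experiments.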

By UniProt entry, the sequences of proteins in these tests, tags left out. Where a name states a change or a piece, a line headed by the entry shows the natural chain unless it says otherwise.
UniProt P19404, whole entry: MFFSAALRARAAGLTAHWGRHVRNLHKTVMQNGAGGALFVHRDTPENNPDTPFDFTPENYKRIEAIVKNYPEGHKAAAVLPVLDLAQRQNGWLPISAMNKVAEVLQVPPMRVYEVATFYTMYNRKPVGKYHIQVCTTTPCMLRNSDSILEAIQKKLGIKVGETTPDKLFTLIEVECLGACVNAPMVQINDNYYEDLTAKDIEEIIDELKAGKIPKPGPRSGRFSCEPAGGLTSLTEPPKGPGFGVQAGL
UniProt Q7KZI7: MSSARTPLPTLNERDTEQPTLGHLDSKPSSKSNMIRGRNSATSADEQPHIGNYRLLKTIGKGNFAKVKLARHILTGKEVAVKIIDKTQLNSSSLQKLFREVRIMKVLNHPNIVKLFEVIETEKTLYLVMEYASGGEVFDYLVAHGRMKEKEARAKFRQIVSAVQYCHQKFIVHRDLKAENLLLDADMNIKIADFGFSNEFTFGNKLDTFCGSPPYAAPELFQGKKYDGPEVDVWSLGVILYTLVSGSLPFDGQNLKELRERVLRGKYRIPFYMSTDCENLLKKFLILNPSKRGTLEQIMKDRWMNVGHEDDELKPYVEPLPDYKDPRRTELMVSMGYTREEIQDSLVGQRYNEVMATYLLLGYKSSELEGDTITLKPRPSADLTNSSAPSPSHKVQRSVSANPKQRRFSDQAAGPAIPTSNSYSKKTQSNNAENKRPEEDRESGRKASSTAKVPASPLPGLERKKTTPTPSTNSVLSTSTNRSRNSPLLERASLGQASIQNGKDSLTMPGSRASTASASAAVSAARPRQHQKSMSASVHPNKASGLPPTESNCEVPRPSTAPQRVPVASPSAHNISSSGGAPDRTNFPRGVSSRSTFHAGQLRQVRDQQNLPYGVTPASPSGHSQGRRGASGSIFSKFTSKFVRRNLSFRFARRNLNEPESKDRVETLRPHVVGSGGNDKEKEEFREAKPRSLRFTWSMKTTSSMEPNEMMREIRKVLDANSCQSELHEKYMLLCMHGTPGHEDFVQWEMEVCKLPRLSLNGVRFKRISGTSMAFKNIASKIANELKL
UniProt P48382: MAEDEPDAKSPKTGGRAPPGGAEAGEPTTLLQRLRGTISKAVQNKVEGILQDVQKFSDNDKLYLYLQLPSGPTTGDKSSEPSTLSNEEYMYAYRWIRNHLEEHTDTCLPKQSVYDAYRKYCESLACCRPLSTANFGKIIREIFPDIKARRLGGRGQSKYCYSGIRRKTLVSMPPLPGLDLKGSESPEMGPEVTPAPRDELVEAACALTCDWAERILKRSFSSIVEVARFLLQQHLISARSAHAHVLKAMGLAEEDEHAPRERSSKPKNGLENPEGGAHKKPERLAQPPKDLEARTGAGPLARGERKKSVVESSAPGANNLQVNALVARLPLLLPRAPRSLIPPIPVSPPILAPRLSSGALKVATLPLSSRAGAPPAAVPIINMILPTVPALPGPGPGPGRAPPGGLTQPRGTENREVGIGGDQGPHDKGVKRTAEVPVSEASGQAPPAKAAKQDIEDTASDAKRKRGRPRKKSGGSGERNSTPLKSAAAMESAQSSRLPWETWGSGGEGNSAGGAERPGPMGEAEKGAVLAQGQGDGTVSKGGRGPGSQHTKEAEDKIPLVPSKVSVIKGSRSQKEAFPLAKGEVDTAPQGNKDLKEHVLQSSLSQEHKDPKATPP
UniProt Q6UW02: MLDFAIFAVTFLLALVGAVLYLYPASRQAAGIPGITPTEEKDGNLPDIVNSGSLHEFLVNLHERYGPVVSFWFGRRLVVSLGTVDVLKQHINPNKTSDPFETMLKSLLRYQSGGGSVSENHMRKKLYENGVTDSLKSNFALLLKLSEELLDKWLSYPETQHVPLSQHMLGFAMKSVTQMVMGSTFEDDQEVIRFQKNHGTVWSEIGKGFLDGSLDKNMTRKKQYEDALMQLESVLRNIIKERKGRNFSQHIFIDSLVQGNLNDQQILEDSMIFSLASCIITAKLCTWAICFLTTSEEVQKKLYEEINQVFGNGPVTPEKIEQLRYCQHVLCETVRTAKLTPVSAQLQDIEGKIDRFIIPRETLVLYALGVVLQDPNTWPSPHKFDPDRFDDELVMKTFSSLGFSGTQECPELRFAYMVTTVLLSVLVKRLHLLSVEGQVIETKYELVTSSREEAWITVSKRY
UniProt P57764: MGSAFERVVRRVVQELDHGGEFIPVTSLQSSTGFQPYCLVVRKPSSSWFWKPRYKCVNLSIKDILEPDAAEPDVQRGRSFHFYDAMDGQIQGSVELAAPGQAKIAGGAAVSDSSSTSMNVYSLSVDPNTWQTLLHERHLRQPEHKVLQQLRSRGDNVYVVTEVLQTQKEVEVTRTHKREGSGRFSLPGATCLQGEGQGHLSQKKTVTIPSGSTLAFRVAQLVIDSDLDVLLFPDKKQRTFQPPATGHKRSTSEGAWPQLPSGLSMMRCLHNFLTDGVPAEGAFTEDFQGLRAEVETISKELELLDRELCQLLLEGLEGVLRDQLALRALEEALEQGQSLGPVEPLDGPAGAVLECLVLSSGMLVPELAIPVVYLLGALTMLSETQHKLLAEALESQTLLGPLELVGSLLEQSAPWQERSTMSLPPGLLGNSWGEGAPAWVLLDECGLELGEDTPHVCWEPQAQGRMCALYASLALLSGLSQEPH
UniProt O75387: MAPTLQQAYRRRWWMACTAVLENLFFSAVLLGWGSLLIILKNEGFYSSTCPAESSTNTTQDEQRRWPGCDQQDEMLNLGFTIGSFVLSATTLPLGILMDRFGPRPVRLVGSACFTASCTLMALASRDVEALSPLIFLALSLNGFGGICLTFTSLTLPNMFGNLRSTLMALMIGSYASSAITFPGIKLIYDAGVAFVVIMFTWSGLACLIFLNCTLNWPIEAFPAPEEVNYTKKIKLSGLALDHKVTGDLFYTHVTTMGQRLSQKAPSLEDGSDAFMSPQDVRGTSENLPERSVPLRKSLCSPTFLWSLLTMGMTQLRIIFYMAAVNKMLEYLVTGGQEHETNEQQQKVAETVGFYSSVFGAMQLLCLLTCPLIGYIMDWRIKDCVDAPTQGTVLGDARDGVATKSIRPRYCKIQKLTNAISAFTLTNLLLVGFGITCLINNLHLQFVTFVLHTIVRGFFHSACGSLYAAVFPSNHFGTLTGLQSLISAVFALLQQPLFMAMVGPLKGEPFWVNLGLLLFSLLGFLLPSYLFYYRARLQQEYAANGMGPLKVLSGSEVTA
UniProt Q13586, whole entry: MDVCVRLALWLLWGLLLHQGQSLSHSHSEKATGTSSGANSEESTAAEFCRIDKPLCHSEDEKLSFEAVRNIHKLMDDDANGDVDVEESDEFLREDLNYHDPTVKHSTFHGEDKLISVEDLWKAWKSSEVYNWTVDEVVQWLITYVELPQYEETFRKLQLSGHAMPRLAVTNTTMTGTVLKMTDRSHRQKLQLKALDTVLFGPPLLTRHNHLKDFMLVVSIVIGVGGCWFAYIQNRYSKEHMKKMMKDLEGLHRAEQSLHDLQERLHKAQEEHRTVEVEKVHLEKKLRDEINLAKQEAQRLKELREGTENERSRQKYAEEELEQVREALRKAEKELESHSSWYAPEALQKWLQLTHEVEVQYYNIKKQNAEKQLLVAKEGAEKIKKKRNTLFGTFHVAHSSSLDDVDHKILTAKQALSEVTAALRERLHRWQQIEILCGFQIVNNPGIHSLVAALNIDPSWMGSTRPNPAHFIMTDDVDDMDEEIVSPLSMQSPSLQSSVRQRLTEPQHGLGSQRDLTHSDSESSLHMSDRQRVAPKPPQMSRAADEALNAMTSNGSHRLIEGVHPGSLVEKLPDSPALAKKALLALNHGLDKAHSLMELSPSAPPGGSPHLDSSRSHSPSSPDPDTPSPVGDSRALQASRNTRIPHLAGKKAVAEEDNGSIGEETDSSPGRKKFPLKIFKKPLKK
UniProt Q9BQE3, whole entry: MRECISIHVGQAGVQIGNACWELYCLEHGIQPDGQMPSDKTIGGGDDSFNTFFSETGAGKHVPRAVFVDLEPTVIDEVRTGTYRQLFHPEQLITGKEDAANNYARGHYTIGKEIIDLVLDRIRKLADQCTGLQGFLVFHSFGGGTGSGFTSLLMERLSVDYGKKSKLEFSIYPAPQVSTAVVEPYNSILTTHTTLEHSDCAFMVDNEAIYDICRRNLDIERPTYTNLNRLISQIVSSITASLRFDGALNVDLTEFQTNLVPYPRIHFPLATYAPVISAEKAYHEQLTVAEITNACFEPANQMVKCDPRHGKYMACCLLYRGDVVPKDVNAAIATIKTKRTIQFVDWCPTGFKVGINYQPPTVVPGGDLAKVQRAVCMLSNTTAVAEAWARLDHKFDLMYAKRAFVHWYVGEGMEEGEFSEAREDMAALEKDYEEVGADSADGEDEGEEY
UniProt Q13435: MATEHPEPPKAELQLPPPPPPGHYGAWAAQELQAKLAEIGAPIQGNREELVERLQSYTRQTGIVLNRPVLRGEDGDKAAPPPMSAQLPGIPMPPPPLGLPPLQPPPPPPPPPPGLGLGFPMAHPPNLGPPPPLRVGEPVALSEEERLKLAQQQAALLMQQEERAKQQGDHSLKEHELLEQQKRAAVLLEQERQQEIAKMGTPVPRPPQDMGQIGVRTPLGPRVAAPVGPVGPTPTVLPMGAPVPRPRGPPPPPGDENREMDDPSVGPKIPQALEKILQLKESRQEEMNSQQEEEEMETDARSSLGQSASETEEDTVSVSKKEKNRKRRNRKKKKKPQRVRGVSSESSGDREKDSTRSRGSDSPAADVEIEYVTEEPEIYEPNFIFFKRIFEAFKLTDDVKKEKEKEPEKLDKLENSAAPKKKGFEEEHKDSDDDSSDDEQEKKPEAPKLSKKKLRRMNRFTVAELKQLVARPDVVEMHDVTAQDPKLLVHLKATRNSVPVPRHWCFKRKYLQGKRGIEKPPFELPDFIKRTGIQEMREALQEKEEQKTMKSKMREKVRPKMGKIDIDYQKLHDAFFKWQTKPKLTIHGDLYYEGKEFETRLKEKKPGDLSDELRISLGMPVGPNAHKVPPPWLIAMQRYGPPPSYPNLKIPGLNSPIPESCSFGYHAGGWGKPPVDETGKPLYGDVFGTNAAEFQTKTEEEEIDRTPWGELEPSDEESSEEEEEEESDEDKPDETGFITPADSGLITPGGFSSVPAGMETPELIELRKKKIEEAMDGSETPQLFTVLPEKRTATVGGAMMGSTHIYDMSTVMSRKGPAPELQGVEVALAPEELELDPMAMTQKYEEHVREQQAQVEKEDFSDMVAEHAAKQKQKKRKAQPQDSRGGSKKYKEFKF
UniProt Q567U6, whole entry: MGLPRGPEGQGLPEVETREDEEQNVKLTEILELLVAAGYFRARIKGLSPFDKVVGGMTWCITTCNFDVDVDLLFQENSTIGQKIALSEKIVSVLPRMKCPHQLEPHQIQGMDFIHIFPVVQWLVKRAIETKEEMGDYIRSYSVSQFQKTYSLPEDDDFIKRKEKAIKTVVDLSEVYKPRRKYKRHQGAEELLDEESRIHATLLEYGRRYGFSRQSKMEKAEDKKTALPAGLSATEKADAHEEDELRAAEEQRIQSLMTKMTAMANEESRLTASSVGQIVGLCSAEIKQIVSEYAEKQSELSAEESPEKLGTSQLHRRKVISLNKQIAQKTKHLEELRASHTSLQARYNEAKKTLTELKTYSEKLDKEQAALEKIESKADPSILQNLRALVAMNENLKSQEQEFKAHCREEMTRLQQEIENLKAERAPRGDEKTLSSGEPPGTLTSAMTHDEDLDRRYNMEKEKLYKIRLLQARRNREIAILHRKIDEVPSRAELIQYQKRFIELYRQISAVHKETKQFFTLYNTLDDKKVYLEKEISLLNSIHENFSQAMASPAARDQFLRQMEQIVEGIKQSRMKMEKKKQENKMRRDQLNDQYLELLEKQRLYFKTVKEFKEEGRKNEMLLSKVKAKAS
UniProt Q9H061: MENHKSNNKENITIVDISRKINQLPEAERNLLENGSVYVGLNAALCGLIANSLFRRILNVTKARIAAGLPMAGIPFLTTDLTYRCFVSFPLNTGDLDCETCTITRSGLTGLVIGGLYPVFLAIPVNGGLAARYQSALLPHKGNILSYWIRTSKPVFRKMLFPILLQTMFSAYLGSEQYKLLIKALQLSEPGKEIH
UniProt O00217, whole entry: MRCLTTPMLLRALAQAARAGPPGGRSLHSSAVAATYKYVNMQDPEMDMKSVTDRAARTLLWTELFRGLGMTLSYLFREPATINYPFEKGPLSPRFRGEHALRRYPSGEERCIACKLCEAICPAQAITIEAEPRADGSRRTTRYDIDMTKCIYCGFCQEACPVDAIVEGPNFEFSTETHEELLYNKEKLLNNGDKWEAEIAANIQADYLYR

± gives the standard deviation of the averaged measurements. Only a part is listed here, and it is no random draw. Most values lie at the level of the controls, where differences are scatter.

Turning to “E7EPT4 and related entries (UniProt P19404)”, the NP40-soluble protein abundance (concentration: 0.1mM) amounted to 1.01 ± 0.034 and the NP40-soluble protein abundance (concentration: 0.5mM) was found to be 0.973 ± 0.038.

Regarding “E9PC69 and related entries (UniProt Q7KZI7)”, the NP40-soluble protein abundance came out at 1.04 ± 0.049 (concentration: 0.1mM) and 1.02 ± 0.019 (concentration: 0.5mM).

In the case of “F8W689 and related entries (UniProt P48382)”, the NP40-soluble protein abundance is, setting by setting: (concentration: 0.1mM) 1 ± 0.037; (concentration: 0.5mM) 1.04 ± 0.11.

As to “E9PHG5 and related entries (UniProt Q6UW02)”, the NP40-soluble protein abundance is 0.983 ± 0.021 (concentration: 0.1mM) and 1 ± 0.065 (concentration: 0.5mM).

In the case of “E9PBC1 and related entries (UniProt O95208)”, the NP40-soluble protein abundance is 1.01 ± 0.016 (concentration: 0.1mM) and 0.999 ± 0.0094 (concentration: 0.5mM).

Take “E9PQR9 and related entries (UniProt P57764)”: the NP40-soluble protein abundance is, setting by setting: (concentration: 0.1mM) 1.02 ± 0.061; (concentration: 0.5mM) 0.961 ± 0.034.

For “F5H527 and related entries (UniProt Q76I76)”, the NP40-soluble protein abundance is, setting by setting: (concentration: 0.1mM) 0.9967 ± 0.0079; (concentration: 0.5mM) 0.987 ± 0.033.

Consider “E9PJ68 and related entries (UniProt O75387)”, for which the NP40-soluble protein abundance was found to be 0.9985 ± 0.0075 (concentration: 0.1mM) and 1.02 ± 0.025 (concentration: 0.5mM).

As to “G0XQ39 and related entries (UniProt Q13586)”, the NP40-soluble protein abundance runs as follows: (concentration: 0.1mM) 0.9874 ± 0.0067; (concentration: 0.5mM) 1 ± 0.034.

“F5H5D3 and related entries (UniProt Q9BQE3)”: the NP40-soluble protein abundance amounted to 0.978 ± 0.055 (concentration: 0.1mM) and 1.01 ± 0.044 (concentration: 0.5mM).

Turning to “E9PJ04 and related entries (UniProt Q13435)”, the NP40-soluble protein abundance by setting is: (concentration: 0.1mM) 0.999 ± 0.026; (concentration: 0.5mM) 1.03 ± 0.053.

In the case of “F8W9X7 and related entries (UniProt Q567U6)”, the NP40-soluble protein abundance is 0.98 ± 0.017 (concentration: 0.1mM) and 0.976 ± 0.026 (concentration: 0.5mM).

Take “E9PB90 and related entries (UniProt P52789)”: the NP40-soluble protein abundance is, setting by setting: (concentration: 0.1mM) 0.985 ± 0.032; (concentration: 0.5mM) 0.991 ± 0.022.

Consider “E7ETU7 and related entries (UniProt P09001)”, for which the NP40-soluble protein abundance (concentration: 0.1mM) amounted to 1.06 ± 0.058 and the NP40-soluble protein abundance (concentration: 0.5mM) is 0.973 ± 0.1.

Turning to “E9PI90 and related entries (UniProt Q9H061)”, the NP40-soluble protein abundance by setting is: (concentration: 0.1mM) 1.05 ± 0.095; (concentration: 0.5mM) 0.985 ± 0.12.

For “E9PPW7 and related entries (UniProt O00217)”, the NP40-soluble protein abundance runs as follows: (concentration: 0.1mM) 0.995 ± 0.011; (concentration: 0.5mM) 0.98 ± 0.013.
